In the supplement of paper PMC10849652:
This is one part of the list.

Sequences of proteins named here, by UniProt entry; tags and fusion partners are left off. A change or cut given only in a name is not applied to a line headed by its entry.
UniProt Q8TBF2: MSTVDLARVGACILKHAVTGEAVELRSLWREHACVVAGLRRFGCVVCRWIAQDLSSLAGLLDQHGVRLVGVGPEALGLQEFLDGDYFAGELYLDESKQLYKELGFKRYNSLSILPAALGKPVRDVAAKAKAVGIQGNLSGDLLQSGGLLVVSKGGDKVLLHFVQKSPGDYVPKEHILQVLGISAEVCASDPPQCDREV
UniProt P47897: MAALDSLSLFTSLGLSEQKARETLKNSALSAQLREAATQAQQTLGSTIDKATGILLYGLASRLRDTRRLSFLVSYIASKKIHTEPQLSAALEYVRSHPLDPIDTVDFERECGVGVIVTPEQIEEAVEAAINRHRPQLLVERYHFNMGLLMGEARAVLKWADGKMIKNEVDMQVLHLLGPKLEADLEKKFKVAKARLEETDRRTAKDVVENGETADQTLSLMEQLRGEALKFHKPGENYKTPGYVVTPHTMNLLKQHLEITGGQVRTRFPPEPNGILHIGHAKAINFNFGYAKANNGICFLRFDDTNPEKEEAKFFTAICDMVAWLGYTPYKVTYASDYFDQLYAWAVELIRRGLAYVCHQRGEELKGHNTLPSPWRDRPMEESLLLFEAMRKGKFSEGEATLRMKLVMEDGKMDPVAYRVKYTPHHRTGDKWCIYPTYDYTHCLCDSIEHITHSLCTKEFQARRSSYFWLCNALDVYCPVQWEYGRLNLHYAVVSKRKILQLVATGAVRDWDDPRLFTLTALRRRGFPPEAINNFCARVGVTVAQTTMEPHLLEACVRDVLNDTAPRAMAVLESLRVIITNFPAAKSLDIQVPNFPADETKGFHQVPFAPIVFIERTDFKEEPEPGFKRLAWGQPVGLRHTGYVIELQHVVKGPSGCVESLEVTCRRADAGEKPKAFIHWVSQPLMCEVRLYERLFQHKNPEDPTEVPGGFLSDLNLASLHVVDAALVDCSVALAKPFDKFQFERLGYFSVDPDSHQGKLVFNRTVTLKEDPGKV
UniProt Q96QR8: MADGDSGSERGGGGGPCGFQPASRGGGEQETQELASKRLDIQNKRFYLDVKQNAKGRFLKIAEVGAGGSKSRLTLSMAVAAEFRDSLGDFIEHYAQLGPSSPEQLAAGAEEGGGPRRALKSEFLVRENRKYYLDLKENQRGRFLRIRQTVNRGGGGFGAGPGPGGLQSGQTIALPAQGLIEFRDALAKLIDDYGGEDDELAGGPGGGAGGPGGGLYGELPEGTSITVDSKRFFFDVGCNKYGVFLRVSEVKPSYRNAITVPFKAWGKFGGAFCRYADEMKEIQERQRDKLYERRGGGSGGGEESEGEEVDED
UniProt O75832: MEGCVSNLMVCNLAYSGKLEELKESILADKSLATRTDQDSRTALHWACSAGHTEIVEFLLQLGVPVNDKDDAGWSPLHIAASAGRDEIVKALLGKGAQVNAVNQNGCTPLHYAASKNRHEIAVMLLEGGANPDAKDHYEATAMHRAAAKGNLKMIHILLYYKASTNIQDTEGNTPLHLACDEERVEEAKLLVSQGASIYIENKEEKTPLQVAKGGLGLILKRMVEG
UniProt P18433: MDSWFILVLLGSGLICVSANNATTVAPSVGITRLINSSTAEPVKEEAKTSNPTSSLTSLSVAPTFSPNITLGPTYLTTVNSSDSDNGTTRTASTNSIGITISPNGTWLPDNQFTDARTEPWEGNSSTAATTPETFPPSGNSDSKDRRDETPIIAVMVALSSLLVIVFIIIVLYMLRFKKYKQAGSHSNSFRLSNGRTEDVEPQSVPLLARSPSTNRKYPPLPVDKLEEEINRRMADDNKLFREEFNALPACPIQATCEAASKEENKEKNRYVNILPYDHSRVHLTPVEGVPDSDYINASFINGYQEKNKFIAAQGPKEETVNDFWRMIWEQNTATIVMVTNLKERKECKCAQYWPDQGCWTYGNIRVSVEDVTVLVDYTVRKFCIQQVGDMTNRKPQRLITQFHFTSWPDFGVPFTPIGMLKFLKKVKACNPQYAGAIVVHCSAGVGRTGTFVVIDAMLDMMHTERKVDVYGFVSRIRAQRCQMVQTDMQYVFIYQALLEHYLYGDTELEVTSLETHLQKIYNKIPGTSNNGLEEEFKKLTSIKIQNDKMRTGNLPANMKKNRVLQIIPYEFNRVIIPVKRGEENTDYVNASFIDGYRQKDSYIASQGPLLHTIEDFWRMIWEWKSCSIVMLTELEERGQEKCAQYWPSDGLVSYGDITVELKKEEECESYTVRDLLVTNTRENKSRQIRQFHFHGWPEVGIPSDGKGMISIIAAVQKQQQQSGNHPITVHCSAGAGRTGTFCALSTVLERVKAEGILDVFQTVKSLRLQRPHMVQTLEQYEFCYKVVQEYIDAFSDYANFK
UniProt Q9BRP8: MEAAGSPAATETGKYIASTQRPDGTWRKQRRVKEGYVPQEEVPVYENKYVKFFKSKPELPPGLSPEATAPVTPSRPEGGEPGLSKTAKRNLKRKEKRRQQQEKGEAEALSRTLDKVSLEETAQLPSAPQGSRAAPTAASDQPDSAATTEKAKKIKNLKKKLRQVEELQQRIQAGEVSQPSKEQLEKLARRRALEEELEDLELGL
UniProt Q99436: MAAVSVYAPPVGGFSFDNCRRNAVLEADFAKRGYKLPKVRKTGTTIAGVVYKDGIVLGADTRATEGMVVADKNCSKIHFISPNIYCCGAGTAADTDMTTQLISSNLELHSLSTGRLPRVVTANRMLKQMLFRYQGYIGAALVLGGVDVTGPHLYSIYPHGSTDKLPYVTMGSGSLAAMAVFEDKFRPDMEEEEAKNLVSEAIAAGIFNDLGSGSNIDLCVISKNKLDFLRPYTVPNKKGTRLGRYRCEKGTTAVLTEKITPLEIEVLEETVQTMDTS
UniProt O95758: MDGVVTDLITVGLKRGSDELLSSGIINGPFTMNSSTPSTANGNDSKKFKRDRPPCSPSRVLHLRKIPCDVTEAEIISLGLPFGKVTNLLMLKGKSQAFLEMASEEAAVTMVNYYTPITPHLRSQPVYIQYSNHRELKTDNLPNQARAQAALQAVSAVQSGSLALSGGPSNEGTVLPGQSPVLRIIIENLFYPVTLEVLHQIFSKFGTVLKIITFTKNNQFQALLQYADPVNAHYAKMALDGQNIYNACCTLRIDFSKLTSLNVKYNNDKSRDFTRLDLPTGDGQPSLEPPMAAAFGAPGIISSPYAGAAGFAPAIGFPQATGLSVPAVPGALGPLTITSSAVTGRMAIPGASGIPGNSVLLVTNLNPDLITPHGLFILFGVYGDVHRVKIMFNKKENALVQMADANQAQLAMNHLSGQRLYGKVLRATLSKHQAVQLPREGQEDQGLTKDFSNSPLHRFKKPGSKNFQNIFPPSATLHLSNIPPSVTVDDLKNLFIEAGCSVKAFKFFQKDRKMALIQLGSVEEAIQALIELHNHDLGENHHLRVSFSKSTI
UniProt Q96BW5: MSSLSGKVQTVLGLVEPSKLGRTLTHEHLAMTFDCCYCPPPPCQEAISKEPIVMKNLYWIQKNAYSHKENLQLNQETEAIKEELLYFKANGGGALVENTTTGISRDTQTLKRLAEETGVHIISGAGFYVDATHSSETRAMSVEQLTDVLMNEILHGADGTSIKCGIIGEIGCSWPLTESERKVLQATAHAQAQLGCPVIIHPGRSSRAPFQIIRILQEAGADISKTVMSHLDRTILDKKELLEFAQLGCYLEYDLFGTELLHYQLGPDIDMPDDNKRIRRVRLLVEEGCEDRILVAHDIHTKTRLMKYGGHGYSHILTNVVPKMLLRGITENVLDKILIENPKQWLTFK
UniProt P28074: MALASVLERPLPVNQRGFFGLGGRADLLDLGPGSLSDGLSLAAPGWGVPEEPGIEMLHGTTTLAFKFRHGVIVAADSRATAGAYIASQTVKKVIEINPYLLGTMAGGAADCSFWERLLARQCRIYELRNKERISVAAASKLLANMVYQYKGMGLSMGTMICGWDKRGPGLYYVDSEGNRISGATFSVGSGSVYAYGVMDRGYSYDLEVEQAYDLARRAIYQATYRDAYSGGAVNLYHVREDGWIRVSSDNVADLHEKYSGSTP
UniProt P20618: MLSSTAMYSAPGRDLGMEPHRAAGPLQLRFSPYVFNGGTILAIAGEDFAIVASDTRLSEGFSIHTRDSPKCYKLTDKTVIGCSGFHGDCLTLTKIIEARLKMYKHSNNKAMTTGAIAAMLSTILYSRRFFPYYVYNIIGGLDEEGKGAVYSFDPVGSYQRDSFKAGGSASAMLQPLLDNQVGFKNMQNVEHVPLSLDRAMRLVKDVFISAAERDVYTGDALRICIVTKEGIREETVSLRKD
UniProt P61289: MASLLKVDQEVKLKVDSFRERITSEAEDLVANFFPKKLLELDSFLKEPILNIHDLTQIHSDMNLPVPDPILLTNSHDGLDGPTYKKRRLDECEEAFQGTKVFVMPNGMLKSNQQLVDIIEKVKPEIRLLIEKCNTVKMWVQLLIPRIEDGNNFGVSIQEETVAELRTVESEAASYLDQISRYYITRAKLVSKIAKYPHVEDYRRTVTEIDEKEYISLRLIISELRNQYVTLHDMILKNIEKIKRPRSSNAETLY
UniProt O75475: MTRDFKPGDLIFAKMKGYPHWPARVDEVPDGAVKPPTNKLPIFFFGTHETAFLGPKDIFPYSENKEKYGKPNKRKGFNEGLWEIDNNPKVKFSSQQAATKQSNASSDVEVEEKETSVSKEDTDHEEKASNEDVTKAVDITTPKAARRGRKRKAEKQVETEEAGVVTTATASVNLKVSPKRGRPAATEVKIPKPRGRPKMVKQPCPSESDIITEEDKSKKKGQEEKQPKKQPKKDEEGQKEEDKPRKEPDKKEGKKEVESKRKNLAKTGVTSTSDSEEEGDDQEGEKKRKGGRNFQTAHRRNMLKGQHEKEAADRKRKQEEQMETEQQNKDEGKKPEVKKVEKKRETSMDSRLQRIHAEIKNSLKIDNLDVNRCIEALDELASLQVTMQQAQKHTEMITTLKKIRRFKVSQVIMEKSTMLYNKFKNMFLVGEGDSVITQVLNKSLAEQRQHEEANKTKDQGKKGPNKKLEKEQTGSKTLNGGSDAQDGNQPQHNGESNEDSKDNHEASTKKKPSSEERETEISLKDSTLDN
UniProt Q6ZRP7: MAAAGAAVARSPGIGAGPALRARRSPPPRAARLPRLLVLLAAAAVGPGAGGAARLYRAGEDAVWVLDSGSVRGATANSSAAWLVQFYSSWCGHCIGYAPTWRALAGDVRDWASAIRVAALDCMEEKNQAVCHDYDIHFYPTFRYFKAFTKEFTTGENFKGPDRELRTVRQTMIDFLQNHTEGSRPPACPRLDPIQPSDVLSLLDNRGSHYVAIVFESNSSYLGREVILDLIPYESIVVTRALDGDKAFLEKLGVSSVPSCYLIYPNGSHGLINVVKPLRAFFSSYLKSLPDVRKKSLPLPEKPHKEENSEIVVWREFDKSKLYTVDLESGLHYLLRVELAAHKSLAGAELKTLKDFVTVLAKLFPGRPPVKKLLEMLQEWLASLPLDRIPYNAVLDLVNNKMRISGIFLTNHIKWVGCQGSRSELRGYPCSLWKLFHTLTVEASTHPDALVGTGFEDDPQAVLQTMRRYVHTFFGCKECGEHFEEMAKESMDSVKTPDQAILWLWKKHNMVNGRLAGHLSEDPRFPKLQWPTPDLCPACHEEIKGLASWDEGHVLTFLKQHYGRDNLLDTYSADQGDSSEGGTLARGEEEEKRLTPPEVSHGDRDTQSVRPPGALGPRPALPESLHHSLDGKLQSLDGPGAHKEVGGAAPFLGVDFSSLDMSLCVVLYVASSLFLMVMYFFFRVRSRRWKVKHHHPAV
UniProt Q93096: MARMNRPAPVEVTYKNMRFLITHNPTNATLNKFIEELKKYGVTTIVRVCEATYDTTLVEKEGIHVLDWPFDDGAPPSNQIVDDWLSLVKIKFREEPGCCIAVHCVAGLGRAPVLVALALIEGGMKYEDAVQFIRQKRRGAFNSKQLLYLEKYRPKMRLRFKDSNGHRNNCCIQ
UniProt Q96PZ0: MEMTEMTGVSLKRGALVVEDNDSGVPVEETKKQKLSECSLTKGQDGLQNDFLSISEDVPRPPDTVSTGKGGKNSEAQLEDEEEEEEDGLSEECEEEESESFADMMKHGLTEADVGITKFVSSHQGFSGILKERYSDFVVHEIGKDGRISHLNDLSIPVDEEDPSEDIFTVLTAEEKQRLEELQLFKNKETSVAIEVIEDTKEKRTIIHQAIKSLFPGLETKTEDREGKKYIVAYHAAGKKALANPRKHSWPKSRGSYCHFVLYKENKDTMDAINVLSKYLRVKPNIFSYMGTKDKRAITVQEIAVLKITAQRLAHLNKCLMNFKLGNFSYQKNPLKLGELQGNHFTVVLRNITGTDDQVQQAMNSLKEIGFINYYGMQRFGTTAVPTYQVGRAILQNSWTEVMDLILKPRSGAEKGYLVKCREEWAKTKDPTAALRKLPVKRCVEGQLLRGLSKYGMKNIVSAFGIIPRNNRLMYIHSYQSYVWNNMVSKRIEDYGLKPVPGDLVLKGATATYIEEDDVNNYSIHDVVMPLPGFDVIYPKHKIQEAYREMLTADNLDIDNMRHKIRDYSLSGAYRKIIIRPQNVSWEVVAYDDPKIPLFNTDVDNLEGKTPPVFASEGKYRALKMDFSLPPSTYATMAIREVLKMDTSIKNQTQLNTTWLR

Key:
Test in all cases: log2 fold change, soluble protein after heating vs DMSO (PISA); higher = thermal stabilisation; K562 cells, 10 uM, 30 min; active = over 0.2 and 3.5 SD of the protein, either way, in both replicates (recomputed)
[1] = compound: CN1CCN(CCOc2cc(OC3CCOCC3)c3c(Nc4c(Cl)ccc5c4OCO5)ncnc3c2)CC1 [saracatinib]
In short: (§1)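 K562 cells at 2×10^6 cells/mL were exposed to 10 μM compound for 30 min, then aliquots were heated for 3 min across 48°C-58°C, pooled, and extracted in PBS containing 0.5% NP-40 at 4°C. The supernatant after 21,000xg for 90 min was taken as soluble protein and measured by TMTpro 16plex LC-MS/MS with channel sums equalised. Thermal stability is reported relative to control samples, with values from duplicates. Fold changes are given on a log2 scale.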

[2] = compound: CN1CCN(c2nc(C3=C(c4c[nH]c5ccccc45)C(=O)NC3=O)c3ccccc3n2)CC1 [sotrastaurin]
In short: as §1

[3] = compound: CN1CC[C@H](c2c(O)cc(O)c3c(=O)cc(-c4ccccc4Cl)oc23)[C@H](O)C1 [alvocidib]
In short: as §1

[4] = compound: CN1CCc2c(c3ccccc3n2Cc2ccc(C(=O)NO)cc2)C1 [Tubastatin A]
In short: as §1

[5] = compound: CNC(=O)C1=CC=CC=C1NC2=NC(=NC=C2Cl)NC3=C(C=C(C=C3)N4CCOCC4)OC
In short: as §1

[6] = compound: CNC(=O)c1ccc(Nc2ncc(C(F)(F)F)c(NCc3nccnc3N(C)S(C)(=O)=O)n2)cc1 [defactinib]
In short: as §1

[7] = compound: CNCc1ccc(-c2[nH]c3cc(F)cc4c3c2CCNC4=O)cc1 [rucaparib]
In short: as §1

[8] = compound: CNc1nc(-c2ccc3c(N)n[nH]c3c2)cc(N2C[C@@H](C(=O)NC3CCCCC3)CC[C@H]2C)n1
In short: as §1

[9] = compound: COC(=O)N[C@@H](C)CNc1nccc(-c2cn(C(C)C)nc2-c2cc(Cl)cc(NS(C)(=O)=O)c2F)n1 [encorafenib]
In short: as §1

[10] = compound: COC(=O)[C@H](CCSC)NC(=O)C1=C(C=C(C=C1)NC[C@H](CS)N)C2=CC=CC=C2
In short: as §1

Measured: log2 fold change

PWP2 (UniProt Q15269)
inactive: [1] -0.014 | [2] 0.002 | [3] 0.146 | [4] 0 | [5] -0.024 | [6] 0.274 | [7] 0.279 | [8] 0.044 | [9] 0.222 | [10] -0.015

PRXL2B isoform 3 (UniProt Q8TBF2)
inactive: [1] 0.061 | [2] -0.077 | [3] 0.008 | [4] -0.016 | [5] -0.011 | [6] -0.058 | [7] -0.031 | [8] -0.082 | [9] 0.003 | [10] 0.051

QARS (UniProt P47897)
inactive: [1] -0.121 | [2] -0.156 | [3] 0.261 | [4] 0.103 | [5] 0.005 | [6] 0.292 | [7] 0.542 | [8] 0.14 | [9] 0.227 | [10] -0.001

PURB (UniProt Q96QR8)
inactive: [1] 0.07 | [2] 0.018 | [3] 0.363 | [4] 0.013 | [5] 0.025 | [6] 0.12 | [7] 0.292 | [8] 0.086 | [9] 0.027 | [10] 0.081

Copied from the listing (two entries):
QARS (UniProt P47897)
inactive: [1] -0.121 | [2] -0.156 | [3] 0.261 | [4] 0.103 | [5] 0.005 | [6] 0.292 | [7] 0.542 | [8] 0.14 | [9] 0.227 | [10] -0.001

PURB (UniProt Q96QR8)
inactive: [1] 0.07 | [2] 0.018 | [3] 0.363 | [4] 0.013 | [5] 0.025 | [6] 0.12 | [7] 0.292 | [8] 0.086 | [9] 0.027 | [10] 0.081

The results go on.

PSMA5 (UniProt P28066)
inactive: [1] -0.011 | [2] -0.033 | [3] 0.104 | [4] -0.018 | [5] -0.014 | [6] 0.024 | [7] 0.007 | [8] -0.009 | [9] 0.003 | [10] -0.017

PSMD10 (UniProt O75832)
inactive: [1] 0.029 | [2] -0.033 | [3] -0.1 | [4] 0.04 | [5] 0.102 | [6] -0.099 | [7] 0.008 | [8] 0.01 | [9] 0.066 | [10] -0.051

PZP (UniProt P20742)
inactive: [1] 0.263 | [2] 0.069 | [3] 0.034 | [4] -0.119 | [5] 0.063 | [6] -0.063 | [7] -0.162 | [8] 0.022 | [9] -0.02 | [10] 0.121

PTPRA (UniProt P18433)
inactive: [1] 0.014 | [2] 0.029 | [3] -0.093 | [4] 0.007 | [5] 0.036 | [6] -0.06 | [7] 0.052 | [8] -0.038 | [9] 0.026 | [10] -0.017

PSMG1 (UniProt O95456)
inactive: [1] 0.078 | [2] -0.005 | [3] 0.004 | [4] -0.072 | [5] -0.026 | [6] -0.003 | [7] -0.032 | [8] -0.015 | [9] -0.019 | [10] 0.041

PWP1 (UniProt Q13610)
inactive: [1] -0.043 | [2] 0.007 | [3] 0.364 | [4] 0.152 | [5] -0.03 | [6] 0.431 | [7] 0.448 | [8] 0.115 | [9] 0.13 | [10] -0.001

PYM1 (UniProt Q9BRP8)
inactive: [1] -0.087 | [2] 0.031 | [3] 0.157 | [4] 0.094 | [5] -0.022 | [6] 0.141 | [7] 0.128 | [8] 0.052 | [9] 0.057 | [10] 0.006

PSMB7 (UniProt Q99436)
inactive: [1] 0 | [2] 0.006 | [3] 0.091 | [4] -0.023 | [5] -0.008 | [6] 0.039 | [7] 0 | [8] 0 | [9] 0.01 | [10] 0.019

PTBP3 isoform 4 (UniProt O95758)
inactive: [1] -0.015 | [2] -0.029 | [3] -0.08 | [4] 0.018 | [5] 0.032 | [6] -0.226 | [7] -0.003 | [8] 0.003 | [9] 0.082 | [10] -0.057

PSME1 (UniProt Q06323)
inactive: [1] -0.017 | [2] 0.003 | [3] -0.083 | [4] -0.023 | [5] 0.011 | [6] -0.012 | [7] -0.119 | [8] -0.02 | [9] 0.037 | [10] -0.011

PTER (UniProt Q96BW5)
inactive: [1] 0.025 | [2] 0.018 | [3] -0.011 | [4] -0.029 | [5] -0.028 | [6] 0 | [7] -0.039 | [8] -0.042 | [9] 0 | [10] 0.007

PTK2 (UniProt Q05397)
inactive: [1] 0.043 | [2] 0.003 | [3] -0.026 | [4] -0.037 | [5] 0.158 | [6] 0.163 | [7] -0.039 | [8] -0.012 | [9] -0.001 | [10] -0.006

PSMB5 (UniProt P28074)
inactive: [1] 0.025 | [2] -0.032 | [3] 0.061 | [4] -0.02 | [5] 0.013 | [6] 0.048 | [7] 0.019 | [8] -0.015 | [9] 0.011 | [10] 0.041

PYCARD (UniProt Q9ULZ3)
inactive: [1] 0.101 | [2] 0.033 | [3] -0.123 | [4] -0.019 | [5] -0.022 | [6] -0.028 | [7] -0.071 | [8] 0.001 | [9] -0.003 | [10] -0.023

PTPN11 isoform 1 (UniProt Q06124)
inactive: [1] 0.024 | [2] 0.003 | [3] -0.052 | [4] -0.003 | [5] 0.004 | [6] -0.057 | [7] -0.012 | [8] -0.011 | [9] -0.002 | [10] -0.011

PSMA8 (UniProt Q8TAA3)
inactive: [1] -0.04 | [2] 0.018 | [3] -0.01 | [4] -0.012 | [5] -0.01 | [6] 0.036 | [7] 0.025 | [8] 0.046 | [9] 0.021 | [10] -0.042

PSMB1 (UniProt P20618)
inactive: [1] -0.023 | [2] 0.002 | [3] 0.033 | [4] -0.021 | [5] -0.015 | [6] 0.032 | [7] 0.049 | [8] 0.012 | [9] 0.01 | [10] -0.004

PSME3 isoform 2 (UniProt P61289)
inactive: [1] 0.036 | [2] 0.014 | [3] 0.023 | [4] -0.041 | [5] -0.045 | [6] 0.004 | [7] -0.04 | [8] -0.021 | [9] -0.018 | [10] 0.055

PSIP1 (UniProt O75475)
inactive: [1] -0.056 | [2] -0.032 | [3] 0.092 | [4] -0.052 | [5] 0.011 | [6] 0.104 | [7] 0.195 | [8] 0.03 | [9] 0.075 | [10] 0.037

QSOX2 (UniProt Q6ZRP7)
inactive: [1] 0.043 | [2] -0.005 | [3] -0.018 | [4] -0.047 | [5] 0.018 | [6] -0.073 | [7] -0.07 | [8] 0.001 | [9] 0.033 | [10] -0.034

PTP4A1 (UniProt Q93096)
inactive: [1] -0.058 | [2] 0.061 | [4] 0.036 | [5] 0.02 | [7] -0.038 | [8] 0.04 | [9] -0.027 | [10] 0.029
active: [3] -0.34 | [6] -0.447

PUS7 isoform 2 (UniProt Q96PZ0)
inactive: [1] -0.042 | [2] -0.05 | [3] -0.052 | [4] -0.009 | [5] -0.012 | [6] -0.058 | [7] 0.044 | [8] -0.037 | [9] 0.017 | [10] 0.015

PUDP isoform 4 (UniProt Q08623)
inactive: [1] 0.043 | [2] -0.027 | [3] -0.03 | [4] -0.039 | [5] -0.042 | [6] -0.014 | [7] -0.059 | [8] -0.015 | [9] -0.047 | [10] -0.036
